This is an account of results in publication doi:10.1101/2020.06.12.148171.

By UniProt entry, the sequences of proteins in these tests, tags left out. Where a name states a change or a piece, a line headed by the entry shows the natural chain unless it says otherwise.
UniProt P83887: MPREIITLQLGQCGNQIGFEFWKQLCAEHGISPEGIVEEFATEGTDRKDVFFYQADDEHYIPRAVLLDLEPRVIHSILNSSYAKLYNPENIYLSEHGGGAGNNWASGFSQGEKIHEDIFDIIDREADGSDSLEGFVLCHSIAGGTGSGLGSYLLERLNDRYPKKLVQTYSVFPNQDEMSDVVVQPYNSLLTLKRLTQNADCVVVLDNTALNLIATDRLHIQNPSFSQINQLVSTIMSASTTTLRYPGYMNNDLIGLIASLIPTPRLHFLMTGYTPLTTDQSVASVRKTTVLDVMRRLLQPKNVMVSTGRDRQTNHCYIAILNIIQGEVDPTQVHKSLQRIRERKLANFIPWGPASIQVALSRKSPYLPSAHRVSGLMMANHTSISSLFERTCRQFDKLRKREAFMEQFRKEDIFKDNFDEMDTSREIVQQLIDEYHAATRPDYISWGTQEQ
UniProt P33215: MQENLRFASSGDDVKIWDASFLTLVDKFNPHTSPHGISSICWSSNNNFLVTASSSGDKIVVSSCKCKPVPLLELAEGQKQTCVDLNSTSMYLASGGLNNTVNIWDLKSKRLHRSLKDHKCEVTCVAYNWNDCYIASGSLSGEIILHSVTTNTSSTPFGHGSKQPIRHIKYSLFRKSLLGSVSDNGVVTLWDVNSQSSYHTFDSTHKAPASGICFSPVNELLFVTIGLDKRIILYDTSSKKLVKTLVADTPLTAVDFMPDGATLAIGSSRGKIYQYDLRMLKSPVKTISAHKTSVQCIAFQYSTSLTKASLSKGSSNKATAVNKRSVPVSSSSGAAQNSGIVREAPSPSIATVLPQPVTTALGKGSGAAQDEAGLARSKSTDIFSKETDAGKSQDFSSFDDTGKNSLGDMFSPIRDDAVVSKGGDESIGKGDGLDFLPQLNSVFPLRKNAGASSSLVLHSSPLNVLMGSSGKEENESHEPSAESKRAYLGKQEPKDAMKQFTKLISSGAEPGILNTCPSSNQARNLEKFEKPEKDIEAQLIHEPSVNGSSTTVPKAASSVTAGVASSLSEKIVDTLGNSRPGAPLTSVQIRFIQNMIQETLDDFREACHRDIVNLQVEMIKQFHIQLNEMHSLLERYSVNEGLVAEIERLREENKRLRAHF

In the experiment the target is γ-tubulin (mouse (endogenous in MEFs)) (UniProt P83887). Briefly: proximity ligation.

Results are given in words; binding and its absence hold for the method and conditions named. In cells and extracts the contact can be indirect. Binding can be weak; no strength is given.

Take Nedd1 (from UniProt P33215 1-660): the binding result is reported as “binds”.
